Test results taken from article PMC10693564.
These are yes or no findings as the source states them, for the method shown. Some results given as binding are weak or reduced against the parent protein; the word gives no strength.

By UniProt entry, the sequences of proteins in these tests, tags left out. Where a name states a change or a piece, a line headed by the entry shows the natural chain unless it says otherwise. Chains listed by the source or under a name are the forms on record and can include a tag or linker.
fluorescent ISG15 (P05161, form named): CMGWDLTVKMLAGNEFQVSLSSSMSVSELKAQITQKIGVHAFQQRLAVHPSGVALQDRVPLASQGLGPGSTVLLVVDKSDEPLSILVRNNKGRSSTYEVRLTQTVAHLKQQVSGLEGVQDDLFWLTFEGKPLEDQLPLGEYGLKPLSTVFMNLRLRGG

Target: fluorescent ISG15 (UniProt P05161)
Test: fluorescence polarisation; both purified

B1: non-structural protein 1 of influenza B virus (NS1B) (protein, UniProt P03502 1-281)
chain: MADNMTTTQIEVGPGATNATINFEAGILECYERFSWQRALDYPGQDRLHRLKRKLESRIKTHNKSEPENKRMSLEERKAIGVKMMKVLLFMDPSAGIEGFEPYCVKNPSTSKCPNYDWTDYPPTPGKYLDDIEEEPENVDHPIEVVLRDMNNKDARQKIKDEVNTQKEGKFRLTIKRDIRNVLSLRVLVNGTFLKHPNGDKSLSTLHRLNAYDQNGGLVAKLVATDDRTVEDEKDGHRILNSLFERFDEGHSKPIRAAETAVGVLSQFGQEHRLSPEEGDN
- binding: binds
